Measurements from paper PMC11891140.
These are yes or no findings as the source states them, for the method shown. Binding seen in cells or lysates may run through a third protein. For part of these data: Sequences can lack the tags named with a protein.

Assays:
[1] = biological target: T1, endogenous RAB-10 (C. elegans (endogenous in the animals)) (UniProt Q94148); assay: co-IP; EGL-8::mCherry and endogenous RAB-10 in C. elegans animals (Fig. S5A)
T1 sequence: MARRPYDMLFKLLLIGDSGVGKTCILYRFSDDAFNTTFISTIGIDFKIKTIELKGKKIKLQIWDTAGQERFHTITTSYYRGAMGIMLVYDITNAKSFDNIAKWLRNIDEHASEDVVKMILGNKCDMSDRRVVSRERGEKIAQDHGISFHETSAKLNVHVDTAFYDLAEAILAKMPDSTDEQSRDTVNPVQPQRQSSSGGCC

[2] = biological target: T2, RAB-10 used in GST pull-downs, loaded with GTPγS or GDP (C. elegans) (UniProt Q94148); assay: pull-down; GST pull-down with active RAB-10(GTPγS) and EGL-8 (Fig. S5B)
T2 sequence: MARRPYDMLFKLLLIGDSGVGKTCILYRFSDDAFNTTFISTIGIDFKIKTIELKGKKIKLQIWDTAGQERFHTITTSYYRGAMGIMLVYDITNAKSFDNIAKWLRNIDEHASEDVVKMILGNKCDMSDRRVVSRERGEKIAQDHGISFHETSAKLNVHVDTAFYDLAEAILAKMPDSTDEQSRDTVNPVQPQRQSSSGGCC

[3] = biological target: T2, RAB-10 used in GST pull-downs, loaded with GTPγS or GDP (C. elegans); assay: pull-down; GST pull-down with inactive RAB-10(GDP) and EGL-8 (Fig. S5B)

B1: EGL-8::mCherry (expressed in C. elegans animals) (enzyme, UniProt G5EBH0 1-1431)
chain: MAKEFQFNWKPTIIPELLHGSVFDRYDDESTCLELNAQVRIDENGFFLRWLIEGKDAVVLDMGQIWEARTGGLPKDGRIMFELEQRGASETIAERTIWITHGQDLVNVQSFFLVAESVELAKTCRAGINDILKSSRIRHVCPTTQLMKYHTWLTMNVNERRKIPIKLIIKTFSSGKPEKMVQKCLNDLGLGGDKYTPARVINRSMGKKFRNFYKCSRGRKRKEREELDVDILTFEKFQRLYNKICPRTEVQELFVKLSGQKEYLTKERLINFLNEEQRDPRLNEILFPFFDSQRIVALLKKHENDIKYQEDGKMSGDGFLRFLMSDENPPVFLDRIEMFMDMDQPLCHYYINSSHNTYLTGRQYGGKSSSEIYRQVLLSGCRCIELDCWDGTGENKGEPIITHGKAMCTDVFFKDVLVQIRDTAFARSDFPVVLSFENHCSKSNQLKMAKYCMDIFGDMLLSKPFEDAPLDPGVSLPSPNRLRKKILIKNKRLKTDIERHQLDQFLREGKLDEEDELNETPEVVGEDSVSPRSGGSGGTGAPEEVDDDTSDDDDDPSVQTSLNVMRTIPTVNTTSNNGSNRSARSSLDTPSPSGGSLMVPDRATSTATSIKNAVLARSPNFSSLRQKLSFKRRQSPLAGDQRAHPEVEQPVSSSSPATPSISGPPPCATSSGSTSSITITTTGCSTSSSGPSKHILGGEMPAKENDEAHPELKQNFIAKNLKGFGFSKKQPVLTKEEEERIFAEYHYTGATTNIHPLLSSLVNYTHPVKFSGFDVAEANNLHFHMSSFSESTGLGYLKQSAPEFVNYNKRQSSRIYPKGARVDSSNFLPQIFWNAGCQMVSLNFQTPDVYMQLNMGKFEYNGGSGYLLKPDFLRRPDRTFDPFSESPVDGVIAAHCSVRVISGQFLSDRKIGTYVEVEMYGLPTDTIRKEHKTKVIPGNGLNPVYNEDPFVFRKVVLPELAVLRFAVYDENGKQLGQRILPLDGLQAGYRHISLRSDTNQSFILSPVLFVQIVIKTYVPDELSGLVDALADPRAFLSEQKKRQEALAHMGVDDSDIPDVPNTRNMALRHVKQPPRQNGSSADLLANNGQTGSARGDQTSSMASSTIRSPNEQPQPVAVDKFKVDPIEVDDLRRDKAFAKLLKRFQKELDDLRKKHQKQRDSIQKQQPARRRNSSIAWIQTNVDKLITNNRRSTKKEKGSRRSLTASVSSGCGSASGTVTVSVCSPSGASCSGYSTGGPSTPVACNSDGTGSPATIGSPVPQDLVNNDRVRSLVNTQTGEWSAMVRRHDEEEFELKKVQLKEQFDLLRKLMSEAQKNQMLALKLRLEAEGKDLKQTQTKKSMEDAKVIQLDKGIKTKAERDRRVKELNEKNLKMFVEERKRLAMKAQKHEEQLTKRHLDQLEQLDKDFHKALDAEVGNYKEEQLAAQPTSVV
binding [1]: no binding

B2: EGL-8 tested against RAB-10 in the GST pull-down of Fig. S5B (enzyme, UniProt G5EBH0 1-1431)
chain: MAKEFQFNWKPTIIPELLHGSVFDRYDDESTCLELNAQVRIDENGFFLRWLIEGKDAVVLDMGQIWEARTGGLPKDGRIMFELEQRGASETIAERTIWITHGQDLVNVQSFFLVAESVELAKTCRAGINDILKSSRIRHVCPTTQLMKYHTWLTMNVNERRKIPIKLIIKTFSSGKPEKMVQKCLNDLGLGGDKYTPARVINRSMGKKFRNFYKCSRGRKRKEREELDVDILTFEKFQRLYNKICPRTEVQELFVKLSGQKEYLTKERLINFLNEEQRDPRLNEILFPFFDSQRIVALLKKHENDIKYQEDGKMSGDGFLRFLMSDENPPVFLDRIEMFMDMDQPLCHYYINSSHNTYLTGRQYGGKSSSEIYRQVLLSGCRCIELDCWDGTGENKGEPIITHGKAMCTDVFFKDVLVQIRDTAFARSDFPVVLSFENHCSKSNQLKMAKYCMDIFGDMLLSKPFEDAPLDPGVSLPSPNRLRKKILIKNKRLKTDIERHQLDQFLREGKLDEEDELNETPEVVGEDSVSPRSGGSGGTGAPEEVDDDTSDDDDDPSVQTSLNVMRTIPTVNTTSNNGSNRSARSSLDTPSPSGGSLMVPDRATSTATSIKNAVLARSPNFSSLRQKLSFKRRQSPLAGDQRAHPEVEQPVSSSSPATPSISGPPPCATSSGSTSSITITTTGCSTSSSGPSKHILGGEMPAKENDEAHPELKQNFIAKNLKGFGFSKKQPVLTKEEEERIFAEYHYTGATTNIHPLLSSLVNYTHPVKFSGFDVAEANNLHFHMSSFSESTGLGYLKQSAPEFVNYNKRQSSRIYPKGARVDSSNFLPQIFWNAGCQMVSLNFQTPDVYMQLNMGKFEYNGGSGYLLKPDFLRRPDRTFDPFSESPVDGVIAAHCSVRVISGQFLSDRKIGTYVEVEMYGLPTDTIRKEHKTKVIPGNGLNPVYNEDPFVFRKVVLPELAVLRFAVYDENGKQLGQRILPLDGLQAGYRHISLRSDTNQSFILSPVLFVQIVIKTYVPDELSGLVDALADPRAFLSEQKKRQEALAHMGVDDSDIPDVPNTRNMALRHVKQPPRQNGSSADLLANNGQTGSARGDQTSSMASSTIRSPNEQPQPVAVDKFKVDPIEVDDLRRDKAFAKLLKRFQKELDDLRKKHQKQRDSIQKQQPARRRNSSIAWIQTNVDKLITNNRRSTKKEKGSRRSLTASVSSGCGSASGTVTVSVCSPSGASCSGYSTGGPSTPVACNSDGTGSPATIGSPVPQDLVNNDRVRSLVNTQTGEWSAMVRRHDEEEFELKKVQLKEQFDLLRKLMSEAQKNQMLALKLRLEAEGKDLKQTQTKKSMEDAKVIQLDKGIKTKAERDRRVKELNEKNLKMFVEERKRLAMKAQKHEEQLTKRHLDQLEQLDKDFHKALDAEVGNYKEEQLAAQPTSVV
binding [2]: no binding
binding [3]: no binding
